Experimental data as given in article PMC5661613.
These are yes or no findings as the source states them, for the method shown. Binding seen in cells or lysates may run through a third protein. Some entries that bind do so weakly or less than the wild type. Sequences can lack the tags named with a protein.

Target: T1, PDHA1-Flag (pyruvate dehydrogenase E1 alpha 1 subunit) (UniProt P08559)
T1 sequence: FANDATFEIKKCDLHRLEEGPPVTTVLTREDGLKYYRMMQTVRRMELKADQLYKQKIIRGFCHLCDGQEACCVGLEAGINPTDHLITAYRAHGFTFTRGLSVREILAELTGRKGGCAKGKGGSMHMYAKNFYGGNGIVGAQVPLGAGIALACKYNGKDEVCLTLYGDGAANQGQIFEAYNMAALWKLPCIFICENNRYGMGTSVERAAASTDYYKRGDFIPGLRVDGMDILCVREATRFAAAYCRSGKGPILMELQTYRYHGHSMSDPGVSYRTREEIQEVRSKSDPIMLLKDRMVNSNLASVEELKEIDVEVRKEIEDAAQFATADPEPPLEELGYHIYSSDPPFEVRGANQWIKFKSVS
Experiment: co-IP; PDHA1-Flag and PDHB-myc co-expressed in HeLa or HEK293T cells; lysis in 0.5% NP-40 buffer; PDHA1 immuno-purified on Flag beads, washed three times with 0.1% NP-40 buffer; PDHB detected by myc western

binding: binds
B1: PDHB-myc (pyruvate dehydrogenase E1 beta subunit) (protein, UniProt P11177 31-359)
chain: LQVTVRDAINQGMDEELERDEKVFLLGEEVAQYDGAYKVSRGLWKKYGDKRIIDTPISEMGFAGIAVGAAMAGLRPICEFMTFNFSMQAIDQVINSAAKTYYMSGGLQPVPIVFRGPNGASAGVAAQHSQCFAAWYGHCPGLKVVSPWNSEDAKGLIKSAIRDNNPVVVLENELMYGVPFEFPPEAQSKDFLIPIGKAKIERQGTHITVVSHSRPVGHCLEAAAVLSKEGVECEVINMRTIRPMDMETIEASVMKTNHLVTVEGGWPQFGVGAEICARIMEGPAFNFLDAPAVRVTGADVPMPYAKILEDNSIPQVKDIIFAIKKTLNI
